Laboratory results: PubChem BioAssay AID1508597 (Cure First, 2020)
Test: 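Knock-downs altering ovarian cancer cell survival with or without PARP inhibitor rucaparib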 (primary screen). System: human ovarian carcinoma lines grown from tumours: OCI-P5x (papillary serous) and OCI-C5x (clear cell). Knock-down reagent: siRNA pool against human genes, 1.25 pmol siRNA per well. Timing: 72 h or 96 h, depending on the cell culture. Challenge: rucaparib 20 µM (about IC30) or vehicle, present until read-out. Rucaparib or vehicle: Rucaparib. Cell line: OCI-P5x (serous). Measured: 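Luminescent ATP-based viability assay read 72 or 96 h after transfection, depending on culture, given as normalised percent viability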. Scale: viability, normalised: higher = more viable cells remaining. Rule for the call: 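a well counts as a hit if its normalised viability is under 80 percent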. Calls: active = viability under 80%; inactive = viability 80% or more.
Shown is an unselected part of the about 2,100 reagents, under one of the conditions tested. 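Calls flag viability under 80% in either arm, not effects specific to rucaparib; the reference for percent is not stated.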 Some reagents were tested in more than one well and are listed for each. No sequences are given here. The record does not give: the 100% reference.

Gene,PubChem SID,technical replicate,"viability, normalised (%)",call
FOXC1,SID405526795,1,74.1,active
FOXC1,SID405526795,2,72.9,active
FOXC1,SID405526795,3,72.2,active
PARP1,SID405527104,1,71.7,active
PARP1,SID405527104,1,52.9,active
PARP1,SID405527104,2,54.3,active
PARP1,SID405527104,2,70.1,active
PARP1,SID405527104,3,59.7,active
PARP1,SID405527104,3,80.3,inactive
UBE2I,SID405526410,1,81.7,inactive
UBE2I,SID405526410,2,67.1,active
UBE2I,SID405526410,2,80,active
UBE2I,SID405526410,3,72.7,active
UBE2I,SID405526410,3,68.1,active
PFKFB1,SID405527401,1,95.6,inactive
PFKFB1,SID405527401,2,102,inactive
PFKFB1,SID405527401,3,102,inactive
COPS3,SID405528147,1,69.1,active
COPS3,SID405528147,2,65,active
COPS3,SID405528147,3,61.6,active
ENPP7,SID405526672,1,57.2,active
ENPP7,SID405526672,2,52.6,active
ENPP7,SID405526672,3,58.4,active
CDK7,SID405527590,1,127,inactive
CDK7,SID405527590,1,60,active
CDK7,SID405527590,2,130,inactive
CDK7,SID405527590,2,68.7,active
CDK7,SID405527590,3,120,inactive
CDK7,SID405527590,3,53.4,active
ITPKB,SID405527652,1,76.3,active
ITPKB,SID405527652,2,57.3,active
ITPKB,SID405527652,3,70.8,active
GNRHR,SID405526439,1,68.1,active
GNRHR,SID405526439,2,80.7,inactive
GNRHR,SID405526439,3,67.1,active
IPMK,SID405528505,1,77.6,active
IPMK,SID405528505,2,63.8,active
IPMK,SID405528505,3,76.7,active
MED29,SID405527004,1,43.4,active
MED29,SID405527004,2,42.8,active
MED29,SID405527004,3,49.4,active
TADA2A,SID405526518,1,89.9,inactive
TADA2A,SID405526518,2,102,inactive
TADA2A,SID405526518,3,93.4,inactive
SETD2,SID405527281,1,45.3,active
SETD2,SID405527281,2,62.7,active
SETD2,SID405527281,3,49.9,active
DCLK3,SID405527917,1,116,inactive
DCLK3,SID405527917,2,112,inactive
DCLK3,SID405527917,3,92,inactive
GGCT,SID405526814,1,61,active
GGCT,SID405526814,2,64.6,active
GGCT,SID405526814,3,74.8,active
STK39,SID405527836,1,85.9,inactive
STK39,SID405527836,2,97.5,inactive
STK39,SID405527836,3,103,inactive
CDK18,SID405527874,1,79,active
CDK18,SID405527874,2,103,inactive
CDK18,SID405527874,3,65.7,active

3 successive reagents from above, for reference:
Gene,PubChem SID,technical replicate,"viability, normalised (%)",call
CDK18,SID405527874,1,79,active
CDK18,SID405527874,2,103,inactive
CDK18,SID405527874,3,65.7,active
